# From the supplement of paper PMC10849652
# By UniProt entry, the sequences of proteins in these tests, tags left out. Where a name states a change or a piece, a line headed by the entry shows the natural chain unless it says otherwise.
# UniProt Q9C073: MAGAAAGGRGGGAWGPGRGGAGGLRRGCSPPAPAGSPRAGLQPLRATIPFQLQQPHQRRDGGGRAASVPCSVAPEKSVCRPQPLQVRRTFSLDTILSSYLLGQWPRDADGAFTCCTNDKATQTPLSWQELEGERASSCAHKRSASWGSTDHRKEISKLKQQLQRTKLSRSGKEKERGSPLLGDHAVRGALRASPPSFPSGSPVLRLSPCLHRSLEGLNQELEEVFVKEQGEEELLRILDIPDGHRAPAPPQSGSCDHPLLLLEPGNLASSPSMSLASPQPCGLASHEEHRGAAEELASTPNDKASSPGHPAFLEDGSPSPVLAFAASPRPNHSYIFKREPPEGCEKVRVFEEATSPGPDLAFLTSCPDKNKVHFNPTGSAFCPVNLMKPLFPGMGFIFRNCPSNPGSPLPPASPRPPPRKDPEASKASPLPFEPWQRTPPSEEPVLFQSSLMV
# UniProt Q96PL5: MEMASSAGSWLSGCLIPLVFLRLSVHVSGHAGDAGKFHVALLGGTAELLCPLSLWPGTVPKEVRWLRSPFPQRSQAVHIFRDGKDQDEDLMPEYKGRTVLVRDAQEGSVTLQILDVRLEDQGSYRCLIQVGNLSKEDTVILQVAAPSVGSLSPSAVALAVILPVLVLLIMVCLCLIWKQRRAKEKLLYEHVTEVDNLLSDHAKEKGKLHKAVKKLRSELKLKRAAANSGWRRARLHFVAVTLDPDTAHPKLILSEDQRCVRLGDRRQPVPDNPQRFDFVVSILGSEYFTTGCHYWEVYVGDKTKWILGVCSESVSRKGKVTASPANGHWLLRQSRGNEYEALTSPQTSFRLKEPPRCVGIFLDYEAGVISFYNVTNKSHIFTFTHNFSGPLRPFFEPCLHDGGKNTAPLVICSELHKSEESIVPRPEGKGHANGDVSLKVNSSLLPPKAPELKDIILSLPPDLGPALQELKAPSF
# UniProt P07814: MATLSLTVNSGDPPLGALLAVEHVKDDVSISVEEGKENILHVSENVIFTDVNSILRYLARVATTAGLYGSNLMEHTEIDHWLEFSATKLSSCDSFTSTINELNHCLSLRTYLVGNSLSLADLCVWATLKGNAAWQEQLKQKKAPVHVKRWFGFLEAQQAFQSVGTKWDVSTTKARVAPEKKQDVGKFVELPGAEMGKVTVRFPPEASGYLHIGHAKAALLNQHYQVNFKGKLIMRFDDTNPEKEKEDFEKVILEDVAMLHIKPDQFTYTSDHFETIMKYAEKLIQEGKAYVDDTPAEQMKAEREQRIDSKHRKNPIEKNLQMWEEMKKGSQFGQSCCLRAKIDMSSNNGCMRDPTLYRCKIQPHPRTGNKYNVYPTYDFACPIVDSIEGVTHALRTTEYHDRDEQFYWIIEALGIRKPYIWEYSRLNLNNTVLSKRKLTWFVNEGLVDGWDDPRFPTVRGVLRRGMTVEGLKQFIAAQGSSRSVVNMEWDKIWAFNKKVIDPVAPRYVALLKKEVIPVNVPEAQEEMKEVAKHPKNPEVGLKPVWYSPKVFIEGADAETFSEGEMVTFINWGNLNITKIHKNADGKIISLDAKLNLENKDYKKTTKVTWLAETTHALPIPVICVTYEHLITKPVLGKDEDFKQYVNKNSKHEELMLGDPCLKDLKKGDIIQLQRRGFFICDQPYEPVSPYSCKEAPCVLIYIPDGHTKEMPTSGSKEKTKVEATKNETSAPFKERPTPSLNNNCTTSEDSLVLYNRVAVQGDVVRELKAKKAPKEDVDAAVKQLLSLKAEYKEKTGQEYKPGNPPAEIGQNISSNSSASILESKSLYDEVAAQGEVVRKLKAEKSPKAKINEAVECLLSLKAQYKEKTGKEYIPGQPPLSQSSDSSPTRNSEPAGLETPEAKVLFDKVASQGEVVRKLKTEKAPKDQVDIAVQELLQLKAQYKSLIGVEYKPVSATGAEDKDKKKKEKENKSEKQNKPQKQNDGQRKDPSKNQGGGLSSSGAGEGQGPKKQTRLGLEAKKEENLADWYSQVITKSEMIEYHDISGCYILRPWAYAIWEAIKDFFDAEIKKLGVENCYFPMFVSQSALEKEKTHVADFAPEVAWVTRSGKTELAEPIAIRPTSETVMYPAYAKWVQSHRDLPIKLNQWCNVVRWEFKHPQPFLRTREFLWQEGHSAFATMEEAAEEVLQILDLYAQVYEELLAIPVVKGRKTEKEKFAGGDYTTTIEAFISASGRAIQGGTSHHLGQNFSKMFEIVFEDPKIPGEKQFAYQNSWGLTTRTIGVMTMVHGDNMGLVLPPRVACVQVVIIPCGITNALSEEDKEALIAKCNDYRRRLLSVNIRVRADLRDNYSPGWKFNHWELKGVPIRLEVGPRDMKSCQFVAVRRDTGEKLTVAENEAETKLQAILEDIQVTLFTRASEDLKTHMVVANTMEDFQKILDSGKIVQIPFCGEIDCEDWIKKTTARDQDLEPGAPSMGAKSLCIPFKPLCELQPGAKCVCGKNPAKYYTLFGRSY
# UniProt P07099: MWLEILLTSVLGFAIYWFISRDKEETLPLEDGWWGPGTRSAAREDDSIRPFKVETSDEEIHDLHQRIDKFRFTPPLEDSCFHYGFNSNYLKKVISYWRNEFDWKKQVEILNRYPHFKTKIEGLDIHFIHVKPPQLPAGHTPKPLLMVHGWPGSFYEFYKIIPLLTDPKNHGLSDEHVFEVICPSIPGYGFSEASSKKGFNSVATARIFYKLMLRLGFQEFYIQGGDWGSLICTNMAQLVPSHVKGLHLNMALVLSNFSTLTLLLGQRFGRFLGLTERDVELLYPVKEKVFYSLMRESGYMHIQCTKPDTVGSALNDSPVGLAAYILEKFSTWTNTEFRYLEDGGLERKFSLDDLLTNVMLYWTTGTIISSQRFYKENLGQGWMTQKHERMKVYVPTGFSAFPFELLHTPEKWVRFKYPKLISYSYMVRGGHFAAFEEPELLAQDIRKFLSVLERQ
# UniProt O43414: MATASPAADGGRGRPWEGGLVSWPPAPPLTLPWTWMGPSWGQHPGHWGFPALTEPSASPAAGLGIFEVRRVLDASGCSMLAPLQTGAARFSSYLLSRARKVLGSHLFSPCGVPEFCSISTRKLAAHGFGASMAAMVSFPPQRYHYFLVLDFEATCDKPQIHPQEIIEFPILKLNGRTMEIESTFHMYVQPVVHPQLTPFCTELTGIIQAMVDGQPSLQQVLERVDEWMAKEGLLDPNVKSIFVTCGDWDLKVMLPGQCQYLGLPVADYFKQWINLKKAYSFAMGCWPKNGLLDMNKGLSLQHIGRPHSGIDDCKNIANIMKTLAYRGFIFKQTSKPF
# UniProt Q9GZU8: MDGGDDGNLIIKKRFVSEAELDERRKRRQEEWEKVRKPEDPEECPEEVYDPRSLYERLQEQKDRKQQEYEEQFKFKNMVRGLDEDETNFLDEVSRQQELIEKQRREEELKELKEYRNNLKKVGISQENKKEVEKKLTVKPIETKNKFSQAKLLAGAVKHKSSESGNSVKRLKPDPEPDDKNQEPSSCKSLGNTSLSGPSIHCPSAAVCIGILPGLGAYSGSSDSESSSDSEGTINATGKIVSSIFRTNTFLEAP
# UniProt O75477: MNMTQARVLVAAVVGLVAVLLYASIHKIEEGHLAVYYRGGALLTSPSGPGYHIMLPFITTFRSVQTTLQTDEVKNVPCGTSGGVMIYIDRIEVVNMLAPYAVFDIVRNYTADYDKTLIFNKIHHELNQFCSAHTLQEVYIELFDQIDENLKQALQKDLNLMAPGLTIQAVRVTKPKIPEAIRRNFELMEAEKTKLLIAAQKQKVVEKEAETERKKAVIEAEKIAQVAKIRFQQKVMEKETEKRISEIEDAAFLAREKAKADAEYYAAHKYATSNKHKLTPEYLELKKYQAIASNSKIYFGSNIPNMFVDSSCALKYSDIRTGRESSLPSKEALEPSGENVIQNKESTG
# UniProt Q16134: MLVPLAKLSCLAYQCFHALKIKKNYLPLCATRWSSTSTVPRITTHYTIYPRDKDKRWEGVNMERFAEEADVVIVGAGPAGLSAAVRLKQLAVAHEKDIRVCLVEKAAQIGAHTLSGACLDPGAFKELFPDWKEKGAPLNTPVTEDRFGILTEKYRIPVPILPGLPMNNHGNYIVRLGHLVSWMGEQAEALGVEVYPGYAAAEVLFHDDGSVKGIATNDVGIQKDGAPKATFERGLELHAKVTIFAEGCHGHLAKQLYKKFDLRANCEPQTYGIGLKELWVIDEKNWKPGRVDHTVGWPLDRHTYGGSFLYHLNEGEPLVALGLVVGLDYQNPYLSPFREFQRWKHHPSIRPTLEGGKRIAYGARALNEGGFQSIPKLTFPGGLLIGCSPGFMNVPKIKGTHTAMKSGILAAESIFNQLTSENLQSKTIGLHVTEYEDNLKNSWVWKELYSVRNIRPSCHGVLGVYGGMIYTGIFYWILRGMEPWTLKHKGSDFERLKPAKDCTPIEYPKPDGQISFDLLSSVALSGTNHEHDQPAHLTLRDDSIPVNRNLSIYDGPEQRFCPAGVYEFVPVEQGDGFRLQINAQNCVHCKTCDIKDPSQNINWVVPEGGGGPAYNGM
# UniProt Q01844: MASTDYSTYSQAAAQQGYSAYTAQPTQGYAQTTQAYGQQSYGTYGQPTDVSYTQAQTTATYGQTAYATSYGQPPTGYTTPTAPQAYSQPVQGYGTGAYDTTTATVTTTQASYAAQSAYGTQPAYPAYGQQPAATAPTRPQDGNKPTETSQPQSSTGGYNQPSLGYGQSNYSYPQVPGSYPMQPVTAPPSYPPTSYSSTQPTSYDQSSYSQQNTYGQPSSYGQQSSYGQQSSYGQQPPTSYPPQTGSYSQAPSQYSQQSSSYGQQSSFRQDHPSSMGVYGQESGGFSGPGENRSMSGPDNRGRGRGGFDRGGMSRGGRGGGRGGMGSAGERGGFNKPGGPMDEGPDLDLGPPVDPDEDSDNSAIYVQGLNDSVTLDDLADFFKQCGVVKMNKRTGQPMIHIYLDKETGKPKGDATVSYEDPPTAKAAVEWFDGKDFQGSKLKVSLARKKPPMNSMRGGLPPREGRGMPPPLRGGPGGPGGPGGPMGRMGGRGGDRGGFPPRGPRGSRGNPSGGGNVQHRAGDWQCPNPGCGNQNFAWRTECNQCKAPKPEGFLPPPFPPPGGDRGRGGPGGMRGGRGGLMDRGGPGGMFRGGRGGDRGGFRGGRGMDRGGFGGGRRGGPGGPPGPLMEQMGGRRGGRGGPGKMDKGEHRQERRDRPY
# UniProt P38117: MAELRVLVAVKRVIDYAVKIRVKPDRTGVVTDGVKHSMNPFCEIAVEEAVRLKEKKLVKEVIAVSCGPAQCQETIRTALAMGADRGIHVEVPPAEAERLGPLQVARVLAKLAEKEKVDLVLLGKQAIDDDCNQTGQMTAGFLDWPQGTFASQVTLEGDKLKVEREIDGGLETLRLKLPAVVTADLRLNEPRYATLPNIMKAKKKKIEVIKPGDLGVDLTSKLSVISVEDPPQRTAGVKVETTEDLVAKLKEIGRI
# UniProt Q8TBG4: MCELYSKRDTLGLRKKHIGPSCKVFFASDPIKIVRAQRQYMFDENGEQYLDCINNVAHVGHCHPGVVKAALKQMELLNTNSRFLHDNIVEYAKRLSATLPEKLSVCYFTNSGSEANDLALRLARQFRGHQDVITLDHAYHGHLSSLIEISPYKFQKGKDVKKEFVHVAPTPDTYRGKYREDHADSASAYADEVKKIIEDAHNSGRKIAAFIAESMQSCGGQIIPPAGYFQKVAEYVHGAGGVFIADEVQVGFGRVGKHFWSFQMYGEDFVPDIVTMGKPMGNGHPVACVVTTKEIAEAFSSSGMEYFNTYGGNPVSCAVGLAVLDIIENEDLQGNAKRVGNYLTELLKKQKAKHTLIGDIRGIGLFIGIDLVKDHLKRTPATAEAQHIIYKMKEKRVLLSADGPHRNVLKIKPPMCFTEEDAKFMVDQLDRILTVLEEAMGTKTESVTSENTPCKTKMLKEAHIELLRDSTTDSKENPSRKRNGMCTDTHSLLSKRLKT
# UniProt P10768: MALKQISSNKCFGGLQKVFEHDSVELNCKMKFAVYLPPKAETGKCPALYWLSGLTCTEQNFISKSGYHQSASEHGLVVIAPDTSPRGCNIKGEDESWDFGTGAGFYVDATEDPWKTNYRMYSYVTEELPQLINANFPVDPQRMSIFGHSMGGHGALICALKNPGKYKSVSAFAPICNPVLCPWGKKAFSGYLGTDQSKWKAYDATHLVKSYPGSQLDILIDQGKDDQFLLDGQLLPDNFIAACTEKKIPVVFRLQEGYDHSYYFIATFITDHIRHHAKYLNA
# Some of the results follow.
# Columns and labels:
# Experiment in all cases: log2 fold change, soluble protein after heating vs DMSO (PISA); higher = thermal stabilisation; K562 cells, 10 uM, 30 min; active = over 0.2 and 3.5 SD of the protein, either way, in both replicates (recomputed)
# bafetinib = compound: Cc1ccc(NC(=O)c2ccc(CN3CC[C@H](N(C)C)C3)c(C(F)(F)F)c2)cc1Nc1nccc(-c2cncnc2)n1 [bafetinib]
# Summary of the method: (§1)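 K562 cells at 2×10^6 cells/mL were exposed to 10 μM compound for 30 min, then aliquots were heated for 3 min across 48°C-58°C, pooled, and extracted in PBS containing 0.5% NP-40 at 4°C. The supernatant after 21,000xg for 90 min was taken as soluble protein and measured by TMTpro 16plex LC-MS/MS with channel sums equalised. Thermal stability is reported relative to control samples, with values from duplicates. Fold changes are given on a log2 scale.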
# [1] = compound: Cc1cccc(CC(=O)N2CCc3c2ccc(-c2cn(C)c4ncnc(N)c24)c3F)n1
# Summary of the method: as §1
# nilotinib = compound: Cc1cn(-c2cc(NC(=O)c3ccc(C)c(Nc4nccc(-c5cccnc5)n4)c3)cc(C(F)(F)F)c2)cn1 [nilotinib]
# Summary of the method: as §1
# [2] = compound: Cc1nc(Nc2n[nH]c3c2CN(C(=O)N[C@H](CN(C)C)c2ccccc2)C3(C)C)c2sccc2n1
# Summary of the method: as §1
# dasatinib = compound: Cc1nc(Nc2ncc(C(=O)Nc3c(C)cccc3Cl)s2)cc(N2CCN(CCO)CC2)n1 [dasatinib]
# Summary of the method: as §1
# [3] = compound: Cc1ncc(-c2ccnc(Nc3ccc(S(C)(=O)=O)cc3)n2)n1C(C)C
# Summary of the method: as §1
# [4] = compound: Cn1cc(-c2ccc3c(c2)CCN3C(=O)Cc2cccc(C(F)(F)F)c2)c2c(N)ncnc21
# Summary of the method: as §1
# [5] = compound: Cn1cc(-c2ccc3nnc(C(F)(F)c4ccc5ncccc5c4)n3n2)cn1
# Summary of the method: as §1
# tipifarnib = compound: Cn1cncc1[C@@](N)(c1ccc(Cl)cc1)c1ccc2c(c1)c(-c1cccc(Cl)c1)cc(=O)n2C [tipifarnib]
# Summary of the method: as §1
# mubritinib = compound: FC(F)(F)c1ccc(/C=C/c2nc(COc3ccc(CCCCn4ccnn4)cc3)co2)cc1 [mubritinib]
# Summary of the method: as §1
# [6] = compound: NC(=O)Nc1cc(-c2cccc(F)c2)sc1C(=O)N[C@H]1CCCNC1
# Summary of the method: as §1
# [7] = compound: NC(=O)c1cnc(N[C@@H]2CCCC[C@@H]2N)nc1Nc1cccc(-n2nccn2)c1
# Summary of the method: as §1
# [8] = compound: NC1(c2ccc(-c3nc4ccn5c(=O)[nH]nc5c4cc3-c3ccccc3)cc2)CCC1
# Summary of the method: as §1
# [9] = compound: NCC(=O)Nc1ccc(-n2nc(C(F)(F)F)cc2-c2ccc3c(ccc4ccccc43)c2)cc1
# Summary of the method: as §1
# entinostat = compound: Nc1ccccc1NC(=O)c1ccc(CNC(=O)OCc2cccnc2)cc1 [entinostat]
# Summary of the method: as §1
# vorinostat = compound: O=C(CCCCCCC(=O)Nc1ccccc1)NO [vorinostat]
# Summary of the method: as §1
# citarinostat = compound: O=C(CCCCCCNC(=O)c1cnc(N(c2ccccc2)c2ccccc2Cl)nc1)NO [citarinostat]
# Summary of the method: as §1
# silmitasertib = compound: O=C(O)c1ccc2c(c1)nc(Nc1cccc(Cl)c1)c1ccncc12 [silmitasertib]
# Summary of the method: as §1
# [10] = compound: O=C1NC(=O)C(c2cnc3ccccn23)=C1c1cn2c3c(cc(F)cc13)CN(C(=O)N1CCCCC1)CC2
# Summary of the method: as §1
# [11] = compound: c1cc(OCCN2CCCCC2)cc(-c2n[nH]c3ccc(-c4nnc[nH]4)cc23)c1
# Summary of the method: as §1
Target,log2 fold change (bafetinib),log2 fold change [1],log2 fold change (nilotinib),log2 fold change [2],log2 fold change (dasatinib),log2 fold change [3],log2 fold change [4],log2 fold change [5],log2 fold change (tipifarnib),log2 fold change (mubritinib),log2 fold change [6],log2 fold change [7],log2 fold change [8],log2 fold change [9],log2 fold change (entinostat),log2 fold change (vorinostat),log2 fold change (citarinostat),log2 fold change (silmitasertib),log2 fold change [10],log2 fold change [11]
EPHX2 (UniProt P34913),inactive: 0.131,inactive: -0.097,inactive: 0.152,inactive: -0.029,inactive: -0.041,inactive: 0.073,inactive: 0.051,inactive: 0.016,inactive: 0.065,inactive: 0.11,inactive: -0.148,inactive: -0.05,inactive: -0.016,inactive: -0.015,inactive: 0.045,inactive: 0.113,inactive: 0.025,inactive: 0.003,inactive: -0.025,inactive: -0.037
EPM2AIP1 (UniProt Q7L775),inactive: -0.076,inactive: 0.005,inactive: 0.002,inactive: -0.066,inactive: -0.026,inactive: 0.008,inactive: 0.029,inactive: -0.009,inactive: -0.007,inactive: 0.047,inactive: -0.044,inactive: -0.069,inactive: -0.064,inactive: -0.03,inactive: 0.005,inactive: 0.009,inactive: 0.017,inactive: 0.012,inactive: -0.069,inactive: -0.003
FAM117A (UniProt Q9C073),inactive: -0.021,inactive: 0.004,inactive: -0.047,inactive: -0.083,inactive: -0.046,inactive: -0.018,inactive: 0.016,inactive: 0.032,inactive: 0.039,inactive: 0.024,inactive: -0.135,inactive: 0,inactive: -0.05,inactive: -0.03,inactive: 0.046,inactive: -0.011,inactive: 0.043,active: -0.422,inactive: 0.038,active: -0.251
ERMAP (UniProt Q96PL5),inactive: 0.005,inactive: -0.014,inactive: 0.08,inactive: -0.044,inactive: -0.161,inactive: -0.028,inactive: -0.018,inactive: 0.058,inactive: 0.094,inactive: 0.002,inactive: -0.103,inactive: -0.032,inactive: 0.01,inactive: -0.008,inactive: -0.029,inactive: 0.05,inactive: -0.009,inactive: 0.005,inactive: 0.014,inactive: -0.085
EPRS (UniProt P07814),inactive: 0.108,inactive: 0.012,inactive: -0.079,inactive: 0.007,inactive: 0.066,inactive: 0.035,inactive: -0.24,inactive: -0.176,inactive: 0.042,inactive: -0.119,inactive: 0.132,inactive: 0.005,inactive: 0.194,inactive: 0.075,inactive: 0.054,inactive: -0.001,inactive: -0.05,inactive: 0.25,inactive: 0.321,inactive: -0.167
EPHX1 (UniProt P07099),inactive: -0.068,inactive: 0.03,inactive: 0.009,inactive: 0.016,inactive: 0.076,inactive: -0.006,inactive: -0.002,inactive: 0.039,inactive: 0.219,inactive: 0.028,inactive: 0.028,inactive: 0.023,inactive: -0.014,inactive: 0.083,inactive: -0.051,inactive: -0.058,inactive: 0.047,inactive: -0.011,inactive: -0.015,inactive: -0.022
ERI3 (UniProt O43414),inactive: 0.014,inactive: -0.004,inactive: -0.016,inactive: 0.032,inactive: -0.015,inactive: -0.01,inactive: 0.062,inactive: 0.041,inactive: 0.042,inactive: 0.064,inactive: -0.102,inactive: -0.121,inactive: -0.051,inactive: -0.067,inactive: -0.016,inactive: 0.018,inactive: 0.023,inactive: -0.013,inactive: -0.052,inactive: -0.061
FAM192A (UniProt Q9GZU8),inactive: -0.043,inactive: -0.08,inactive: -0.009,inactive: 0.021,inactive: 0.054,inactive: -0.02,inactive: 0.009,inactive: 0.015,inactive: -0.016,inactive: 0.036,inactive: -0.018,inactive: -0.054,inactive: 0.051,inactive: 0.018,inactive: -0.038,inactive: -0.074,inactive: -0.023,inactive: 0.006,inactive: -0.028,inactive: 0.01
ERLIN1 (UniProt O75477),inactive: 0.041,inactive: 0.094,inactive: -0.153,inactive: 0.032,inactive: -0.031,inactive: 0.004,inactive: -0.11,inactive: 0.002,inactive: 0.026,inactive: -0.053,inactive: 0.083,inactive: -0.068,inactive: -0.066,inactive: -0.043,inactive: 0.111,inactive: 0.074,inactive: -0.01,inactive: -0.009,inactive: 0.084,inactive: -0.045
"ERVK3-1, A0A0U1RQV1",inactive: -0.058,inactive: -0.078,inactive: 0.056,inactive: 0.006,inactive: 0.075,inactive: -0.058,inactive: 0.019,inactive: 0.247,inactive: 0.092,inactive: 0.014,inactive: 0.013,inactive: 0.016,inactive: -0.019,inactive: 0.033,inactive: 0.124,inactive: -0.079,inactive: 0.055,inactive: 0.009,inactive: -0.194,inactive: -0.034
ETFDH (UniProt Q16134),inactive: -0.037,inactive: 0.03,inactive: -0.012,inactive: 0.008,inactive: -0.032,inactive: -0.001,inactive: 0.022,inactive: 0.025,inactive: -0.001,inactive: 0.122,inactive: 0.026,inactive: -0.06,inactive: -0.069,inactive: -0.06,inactive: -0.002,inactive: 0.017,inactive: 0.026,inactive: -0.011,inactive: -0.081,inactive: -0.046
EWSR1 isoform 5 (UniProt Q01844),inactive: 0,inactive: -0.115,inactive: 0.016,inactive: 0.001,inactive: 0.048,inactive: 0.019,inactive: -0.024,inactive: -0.03,inactive: 0.032,inactive: -0.053,inactive: 0.023,inactive: 0.016,inactive: 0.065,inactive: 0.017,inactive: -0.034,inactive: -0.054,inactive: -0.026,inactive: 0.014,inactive: 0.075,inactive: -0.065
ETFB (UniProt P38117),inactive: -0.017,inactive: -0.03,inactive: 0.04,inactive: 0.001,inactive: 0,inactive: -0.019,inactive: 0.022,inactive: 0.012,inactive: 0.055,inactive: 0.027,inactive: -0.027,inactive: -0.051,inactive: 0.011,inactive: -0.028,inactive: -0.011,inactive: -0.023,inactive: -0.064,inactive: -0.044,inactive: -0.025,inactive: -0.039
ETNPPL (UniProt Q8TBG4),inactive: -0.005,inactive: -0.003,inactive: 0.096,inactive: 0.109,inactive: 0.023,inactive: 0.252,inactive: 0.129,inactive: -0.029,inactive: 0.073,inactive: -0.178,inactive: -0.066,inactive: 0,inactive: 0.113,inactive: -0.102,inactive: -0.008,inactive: 0.004,inactive: -0.136,inactive: 0.167,inactive: -0.002,inactive: 0.333
ERCC2 (UniProt P18074),inactive: 0.094,inactive: 0.061,inactive: -0.014,inactive: -0.175,inactive: -0.185,inactive: -0.022,inactive: 0.05,inactive: 0.01,inactive: -0.062,inactive: 0.114,inactive: -0.015,inactive: -0.011,inactive: -0.109,inactive: 0.004,inactive: 0.014,inactive: 0.045,inactive: 0.103,inactive: -0.052,inactive: -0.092,inactive: -0.039
ESD (UniProt P10768),inactive: -0.025,inactive: 0.01,inactive: -0.018,inactive: 0.05,inactive: 0.014,inactive: 0.005,inactive: 0.009,inactive: 0.025,inactive: -0.043,inactive: 0.013,inactive: 0.024,inactive: 0.006,inactive: 0.028,inactive: 0.001,inactive: -0.021,inactive: -0.049,inactive: 0.011,inactive: -0.004,inactive: -0.068,inactive: 0.024

# Look-ups from the entries so far:
# For log2 fold change [10], ERI3 (UniProt O43414) has the entry inactive: -0.052
# For log2 fold change [4], EPHX2 (UniProt P34913) has the entry inactive: 0.051
